Series [1] concerns the target T1, PepR (HD73_5014), DeoR family regulator (Bacillus thuringiensis HD73) (UniProt A0A0B5X633). Briefly: EMSA. Conditions: native PAGE, FAM scan, recombinant protein, residues 1-73, protein details: His tag (pET21b, BamHI/SalI, PepR-His), probe letters rebuilt from the primers and the genome.
Series [2] deals with T1, PepR (HD73_5014), DeoR family regulator (Bacillus thuringiensis HD73). Kind of series: competition with a labelled probe. Conditions: 200-fold excess unlabeled probe competed with labeled PpepV; EMSA, native PAGE, FAM scan; recombinant protein; residues 1-73; protein details: His tag (pET21b, BamHI/SalI, PepR-His); probe letters rebuilt from the primers and the genome. (In general: Mobility shift assays separate free from complexed probe on a gel.)

This note sets out measurements from publication PMC10975445.

For part of these data: Negatives hold for the conditions tested. The exact form of at least one protein or probe is not confirmed.

For the sequence “CGCGGATCCCATCACGCATCCATCCTTCACTATATTGTTTCTTTCATCATAACAAACCGAAATCTCTTATGCCATACACGAAAACTAAATACCGAACAATTGTAATATTTCAGATATTTCTTATTAGTTTTTCTTTTATTTTTTCAAAAAAATTTGCAGGAATTTGGCGTTTTACGTAGAATTTTATGTGTTAGTTGACTGACCATATATACAATGTCAACTACCAATATTTTTCTATATGAATATTTGTTAAATTTCTGTAAAATTTAAGTAGATTAAAGCATGAATTTTATCATGTAGAGTACAATGGTAGTAACGACCTTCTTTCCTGAATGGGGTCAAAAAAACTAGTAGAGGAGTGGTTTTCTCCTGCAGTT (double strand) [PpepV promoter fragment]”, the binding result in series [1] (0.21 nM probe, PepR 14.91-44.73 uM, strong shift at 44.73 (text prints nM, legend uM), label: 5'-FAM) is “binds”.

On to “CGCGGATCCGTAACAATAAGCGTTCCGCGCAGAAATTTCGAATCGGACATACAAAAATCCTCCTACATCTACATAAAGTGAAACTATAATTAGTTGGAGACTTCTCTCCTACTCCTTATTAGTTGAACCATTCGAGCATTTACAGGCTAACAGACTCCCTATTTACTTCTCCTAAATCTTGAGGTTTTAGTCTTATCGCCTACAAATGGCAGGATAGTGCTGAACTCTAACTTTTGTATTGTACCACAATTCTCTCATTAAGCAGTACTTCACTCTATTTTTCTTTTAAGGGAAAACATGCTATTCTTTTAGGCAGGAAATGTAGAAAATGAGGTCGATATATTATGCATTATGATGTTATTGTCATCGGCGGCGGTCCTTCTGGGCTAATGGCTGCAATTGGTGCTGCAGCTGCAGTT (double strand) [PrsuA-ytgP promoter fragment]”, for which, in series [1] (0.19 nM probe, no shift at PepR 14.91-44.73 uM, label: FAM), the binding result is on record as “no binding”.

On to “CGCGGATCCCATCACGCATCCATCCTTCACTATATTGTTTCTTTCATCATAACAAACCGAAATCTCTTATGCCATACACGAAAACTAAATACCGAACAATTGTAATATTTCAGATATTTCTTATTAGTTTTTCTTTTATTTTTTCAAAAAAATTTGCAGGAATTTGGCGTTTTACGTAGAATTTTATGTGTTAGTTGACTGACCATATATACAATGTCAACTACCAATATTTTTCTATATGAATATTTGTTAAATTTCTGTAAAATTTAAGTAGATTAAAGCATGAATTTTATCATGTAGAGTACAATGGTAGTAACGACCTTCTTTCCTGAATGGGGTCAAAAAAACTAGTAGAGGAGTGGTTTTCTCCTGCAGTT (double strand) [PpepV promoter fragment, unlabeled competitor]”, for which the binding result in series [2] is on record as “binds”.
